Source: the supplement of paper PMC10849652
This is one part of the list.

Chains of the proteins cited; added tags and fusions are not shown. Lines headed by an entry give the natural chain unless they say otherwise; changes in a name come on top.
UniProt Q86U70: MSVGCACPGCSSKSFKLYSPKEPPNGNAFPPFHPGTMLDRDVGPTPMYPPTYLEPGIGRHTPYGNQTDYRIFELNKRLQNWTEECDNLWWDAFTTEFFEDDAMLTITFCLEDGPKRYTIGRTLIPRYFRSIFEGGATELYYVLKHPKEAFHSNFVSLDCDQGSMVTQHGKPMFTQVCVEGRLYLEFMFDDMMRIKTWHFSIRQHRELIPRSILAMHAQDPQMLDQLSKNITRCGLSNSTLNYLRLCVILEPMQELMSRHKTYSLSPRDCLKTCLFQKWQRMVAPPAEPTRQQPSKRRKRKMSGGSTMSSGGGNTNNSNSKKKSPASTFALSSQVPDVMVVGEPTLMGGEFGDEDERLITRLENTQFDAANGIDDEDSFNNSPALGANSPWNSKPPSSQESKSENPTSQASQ
UniProt Q9NUN5: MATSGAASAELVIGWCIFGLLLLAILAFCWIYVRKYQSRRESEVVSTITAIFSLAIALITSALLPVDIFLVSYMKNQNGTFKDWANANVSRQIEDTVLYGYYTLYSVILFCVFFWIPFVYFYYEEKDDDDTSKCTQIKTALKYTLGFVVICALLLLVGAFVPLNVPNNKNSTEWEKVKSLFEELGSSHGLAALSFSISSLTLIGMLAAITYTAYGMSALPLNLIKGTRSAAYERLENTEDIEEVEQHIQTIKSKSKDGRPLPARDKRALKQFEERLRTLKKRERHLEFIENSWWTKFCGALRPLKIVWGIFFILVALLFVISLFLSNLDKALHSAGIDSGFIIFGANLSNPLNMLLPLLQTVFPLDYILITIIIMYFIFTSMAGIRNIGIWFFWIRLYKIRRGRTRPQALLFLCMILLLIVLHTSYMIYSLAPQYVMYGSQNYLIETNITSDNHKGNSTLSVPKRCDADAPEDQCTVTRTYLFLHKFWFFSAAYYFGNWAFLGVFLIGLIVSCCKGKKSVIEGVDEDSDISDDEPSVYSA
UniProt Q9H089: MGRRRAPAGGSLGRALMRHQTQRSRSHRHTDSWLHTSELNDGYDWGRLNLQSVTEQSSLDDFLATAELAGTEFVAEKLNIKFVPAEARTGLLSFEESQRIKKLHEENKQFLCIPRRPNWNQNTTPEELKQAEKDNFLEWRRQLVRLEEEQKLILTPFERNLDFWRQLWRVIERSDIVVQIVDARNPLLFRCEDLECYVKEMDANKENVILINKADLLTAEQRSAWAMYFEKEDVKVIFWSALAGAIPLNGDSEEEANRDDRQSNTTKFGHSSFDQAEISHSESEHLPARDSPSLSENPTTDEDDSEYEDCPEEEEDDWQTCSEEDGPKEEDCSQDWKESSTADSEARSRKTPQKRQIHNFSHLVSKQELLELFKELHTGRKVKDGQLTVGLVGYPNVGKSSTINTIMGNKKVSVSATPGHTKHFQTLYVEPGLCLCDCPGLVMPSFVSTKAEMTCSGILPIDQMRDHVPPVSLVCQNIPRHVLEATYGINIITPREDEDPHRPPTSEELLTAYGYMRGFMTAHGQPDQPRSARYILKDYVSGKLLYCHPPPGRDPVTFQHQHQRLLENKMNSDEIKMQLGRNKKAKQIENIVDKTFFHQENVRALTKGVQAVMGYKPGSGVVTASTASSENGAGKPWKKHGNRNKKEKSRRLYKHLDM
UniProt Q96AG4: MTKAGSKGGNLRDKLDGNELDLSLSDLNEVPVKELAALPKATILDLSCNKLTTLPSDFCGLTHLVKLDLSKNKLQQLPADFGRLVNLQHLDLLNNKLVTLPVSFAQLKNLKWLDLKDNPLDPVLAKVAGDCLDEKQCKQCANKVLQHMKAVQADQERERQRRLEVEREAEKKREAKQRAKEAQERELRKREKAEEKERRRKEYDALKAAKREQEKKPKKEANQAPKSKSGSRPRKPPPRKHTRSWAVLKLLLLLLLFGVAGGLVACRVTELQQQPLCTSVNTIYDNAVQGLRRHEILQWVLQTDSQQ
UniProt O95202: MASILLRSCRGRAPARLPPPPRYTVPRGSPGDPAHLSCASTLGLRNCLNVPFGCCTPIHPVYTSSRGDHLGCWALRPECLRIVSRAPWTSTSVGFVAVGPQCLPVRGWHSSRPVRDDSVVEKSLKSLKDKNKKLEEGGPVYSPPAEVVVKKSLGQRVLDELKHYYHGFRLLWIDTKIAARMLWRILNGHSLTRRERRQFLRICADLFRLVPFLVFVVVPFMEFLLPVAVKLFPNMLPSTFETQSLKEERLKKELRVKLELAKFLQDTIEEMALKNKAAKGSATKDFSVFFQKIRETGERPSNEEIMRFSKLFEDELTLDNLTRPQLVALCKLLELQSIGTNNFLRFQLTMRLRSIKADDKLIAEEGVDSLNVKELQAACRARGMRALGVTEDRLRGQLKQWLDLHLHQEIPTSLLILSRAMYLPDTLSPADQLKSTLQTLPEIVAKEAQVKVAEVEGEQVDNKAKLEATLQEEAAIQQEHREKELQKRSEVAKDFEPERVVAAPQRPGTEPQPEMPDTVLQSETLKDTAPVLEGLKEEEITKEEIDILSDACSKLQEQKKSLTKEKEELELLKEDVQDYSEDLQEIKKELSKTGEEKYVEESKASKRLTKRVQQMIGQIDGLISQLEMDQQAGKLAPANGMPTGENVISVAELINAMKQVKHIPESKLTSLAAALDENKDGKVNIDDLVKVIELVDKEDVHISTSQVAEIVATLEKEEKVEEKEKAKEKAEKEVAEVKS
UniProt P02545: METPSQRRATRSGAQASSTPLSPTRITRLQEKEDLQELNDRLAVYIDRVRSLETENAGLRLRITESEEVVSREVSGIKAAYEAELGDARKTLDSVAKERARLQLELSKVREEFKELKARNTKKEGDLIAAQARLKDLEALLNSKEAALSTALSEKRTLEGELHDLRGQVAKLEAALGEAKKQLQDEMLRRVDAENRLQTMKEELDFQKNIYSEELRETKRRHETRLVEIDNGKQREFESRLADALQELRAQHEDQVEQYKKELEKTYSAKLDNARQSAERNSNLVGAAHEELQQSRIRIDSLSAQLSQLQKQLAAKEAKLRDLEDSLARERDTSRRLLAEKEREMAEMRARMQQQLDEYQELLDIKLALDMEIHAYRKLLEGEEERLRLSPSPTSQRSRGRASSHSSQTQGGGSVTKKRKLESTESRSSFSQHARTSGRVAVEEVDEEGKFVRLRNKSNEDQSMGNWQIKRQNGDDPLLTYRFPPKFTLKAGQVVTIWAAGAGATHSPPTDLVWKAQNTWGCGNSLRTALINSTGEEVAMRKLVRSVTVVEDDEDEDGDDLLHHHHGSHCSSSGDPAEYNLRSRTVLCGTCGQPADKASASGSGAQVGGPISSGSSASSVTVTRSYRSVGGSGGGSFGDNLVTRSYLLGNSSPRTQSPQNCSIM
UniProt Q9P244: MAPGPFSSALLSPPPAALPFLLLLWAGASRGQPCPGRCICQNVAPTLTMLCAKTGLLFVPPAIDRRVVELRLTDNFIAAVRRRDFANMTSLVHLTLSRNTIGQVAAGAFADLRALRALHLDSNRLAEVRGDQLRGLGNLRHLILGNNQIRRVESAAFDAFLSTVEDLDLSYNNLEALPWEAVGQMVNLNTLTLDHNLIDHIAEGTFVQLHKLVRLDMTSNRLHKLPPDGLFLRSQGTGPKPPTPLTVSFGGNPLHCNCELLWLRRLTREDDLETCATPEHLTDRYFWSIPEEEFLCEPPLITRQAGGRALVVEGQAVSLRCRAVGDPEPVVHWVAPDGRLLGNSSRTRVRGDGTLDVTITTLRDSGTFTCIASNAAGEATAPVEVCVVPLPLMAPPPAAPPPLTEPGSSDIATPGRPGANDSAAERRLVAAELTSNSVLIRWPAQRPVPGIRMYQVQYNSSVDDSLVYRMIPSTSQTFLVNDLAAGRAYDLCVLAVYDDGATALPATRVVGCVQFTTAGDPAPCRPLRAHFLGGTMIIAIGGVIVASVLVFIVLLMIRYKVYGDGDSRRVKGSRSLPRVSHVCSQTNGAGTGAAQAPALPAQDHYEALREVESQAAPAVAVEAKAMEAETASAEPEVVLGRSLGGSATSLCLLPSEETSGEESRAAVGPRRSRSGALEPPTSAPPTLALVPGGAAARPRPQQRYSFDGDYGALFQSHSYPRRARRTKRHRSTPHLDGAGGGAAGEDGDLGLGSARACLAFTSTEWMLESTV
UniProt P48059, whole entry, looked up: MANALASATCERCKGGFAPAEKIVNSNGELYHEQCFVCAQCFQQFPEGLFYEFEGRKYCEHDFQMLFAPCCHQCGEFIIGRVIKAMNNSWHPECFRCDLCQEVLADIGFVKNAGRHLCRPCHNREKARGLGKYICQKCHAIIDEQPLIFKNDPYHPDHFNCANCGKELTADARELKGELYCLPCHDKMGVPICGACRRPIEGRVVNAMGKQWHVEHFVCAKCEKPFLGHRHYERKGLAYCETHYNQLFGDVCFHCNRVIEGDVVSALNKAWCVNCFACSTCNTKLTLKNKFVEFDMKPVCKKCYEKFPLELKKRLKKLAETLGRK
UniProt Q9H9A6: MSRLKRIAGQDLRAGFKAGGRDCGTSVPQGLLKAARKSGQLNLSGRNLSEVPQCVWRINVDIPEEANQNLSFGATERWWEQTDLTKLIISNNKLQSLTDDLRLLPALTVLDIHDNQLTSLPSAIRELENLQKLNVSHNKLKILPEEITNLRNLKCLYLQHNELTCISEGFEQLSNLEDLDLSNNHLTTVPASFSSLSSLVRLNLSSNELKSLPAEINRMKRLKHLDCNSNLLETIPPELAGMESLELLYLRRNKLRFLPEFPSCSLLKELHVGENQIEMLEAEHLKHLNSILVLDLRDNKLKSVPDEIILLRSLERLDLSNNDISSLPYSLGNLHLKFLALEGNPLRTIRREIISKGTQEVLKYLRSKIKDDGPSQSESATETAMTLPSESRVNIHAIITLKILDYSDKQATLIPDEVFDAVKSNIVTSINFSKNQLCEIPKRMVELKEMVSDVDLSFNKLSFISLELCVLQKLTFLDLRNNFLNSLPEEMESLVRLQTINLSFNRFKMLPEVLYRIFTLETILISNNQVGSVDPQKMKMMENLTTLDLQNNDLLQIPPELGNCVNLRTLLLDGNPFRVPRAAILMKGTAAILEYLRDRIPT
UniProt Q9Y4Z0: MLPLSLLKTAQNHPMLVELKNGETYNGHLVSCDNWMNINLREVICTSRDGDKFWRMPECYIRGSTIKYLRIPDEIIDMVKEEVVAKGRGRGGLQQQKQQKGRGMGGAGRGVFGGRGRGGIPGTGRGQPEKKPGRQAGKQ
UniProt O15116: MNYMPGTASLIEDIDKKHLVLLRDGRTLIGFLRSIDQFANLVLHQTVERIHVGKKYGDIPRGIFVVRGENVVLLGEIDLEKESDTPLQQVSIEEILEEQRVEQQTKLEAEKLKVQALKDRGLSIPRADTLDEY
UniProt Q9UIQ6, whole entry, looked up: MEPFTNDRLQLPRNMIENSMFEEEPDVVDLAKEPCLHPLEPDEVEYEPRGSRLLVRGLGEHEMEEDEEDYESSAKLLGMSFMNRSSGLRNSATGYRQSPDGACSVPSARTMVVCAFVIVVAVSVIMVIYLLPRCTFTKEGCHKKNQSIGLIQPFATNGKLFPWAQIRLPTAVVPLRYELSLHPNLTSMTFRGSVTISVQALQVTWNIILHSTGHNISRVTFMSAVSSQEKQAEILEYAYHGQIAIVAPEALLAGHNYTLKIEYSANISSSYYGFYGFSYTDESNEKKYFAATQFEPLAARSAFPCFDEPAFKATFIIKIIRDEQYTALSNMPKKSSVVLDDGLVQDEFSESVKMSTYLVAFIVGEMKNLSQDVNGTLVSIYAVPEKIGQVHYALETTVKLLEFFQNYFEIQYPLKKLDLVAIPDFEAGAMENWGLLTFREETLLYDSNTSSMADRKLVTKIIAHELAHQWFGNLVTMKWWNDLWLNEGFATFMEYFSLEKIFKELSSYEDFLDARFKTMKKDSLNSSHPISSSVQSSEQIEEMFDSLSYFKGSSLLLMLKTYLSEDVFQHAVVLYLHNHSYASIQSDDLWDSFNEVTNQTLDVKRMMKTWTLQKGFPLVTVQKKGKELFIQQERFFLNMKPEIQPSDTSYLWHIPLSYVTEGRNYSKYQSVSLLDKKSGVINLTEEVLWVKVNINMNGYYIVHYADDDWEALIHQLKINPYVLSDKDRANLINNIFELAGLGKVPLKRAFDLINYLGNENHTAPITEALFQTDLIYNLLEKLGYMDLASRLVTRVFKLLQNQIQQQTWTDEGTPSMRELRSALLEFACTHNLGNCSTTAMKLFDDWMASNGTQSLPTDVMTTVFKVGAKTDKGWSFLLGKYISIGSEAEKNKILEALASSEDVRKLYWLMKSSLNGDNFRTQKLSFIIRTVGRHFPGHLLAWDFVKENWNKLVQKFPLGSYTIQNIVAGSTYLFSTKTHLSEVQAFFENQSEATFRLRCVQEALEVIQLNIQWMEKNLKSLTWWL

Key:
Experiment in all cases: log2 fold change, soluble protein after heating vs DMSO (PISA); higher = thermal stabilisation; K562 lysate, 10 uM; active = over 0.2 and 3.5 SD of the protein, either way, in both replicates (recomputed)
erlotinib = compound: C#Cc1cccc(Nc2ncnc3cc(OCCOC)c(OCCOC)cc23)c1 [erlotinib]
In short: (§1)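 Dounce homogenisation of K562 pellets in PBS pH 7.4 with 1 mM MgCl2 produced a crude extract, used at 1 mg/mL protein. Exposure to 10 μM compound lasted 30 min, and aliquots were then heated for 3 min across 48°C-58°C, pooled and brought to 0.5% NP-40 at 4°C. The supernatant after 21,000xg for 90 min was quantified by TMTpro 16plex LC-MS/MS with channel sums equalised. Duplicate values are given as log-two fold change in thermal stability relative to solvent controls.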

[1] = compound: C/C(=N\NC(=O)C1=CC(=CC=C1)S(=O)(=O)N2CCOCC2)/C3=C(C=CC(=C3)Cl)O
In short: as §1

[2] = compound: C1=CC(=CC=C1C2=NC3=C(N2)C=C(C=C3)C(=O)N)OC4=CC=C(C=C4)Cl
In short: as §1

[3] = compound: C1=CC2=C(C=CC(=C2)/C=C\3/C(=O)NC(=NCC4=CC=CS4)S3)N=C1
In short: as §1

[4] = compound: C1=CC2=NC=CN=C2C=C1/C=C/3\C(=O)NC(=O)S3
In short: as §1

[5] = compound: C1=CC=C(C=C1)C2=NC(=C(N2)C3=CC=NC=C3)C4=CC(=C(C=C4)Cl)O
In short: as §1

[6] = compound: C1=CC=C2C(=C1)C3=NNC4=CC=CC(=C43)C2=O
In short: as §1

[7] = compound: C1CCN(C1)C(=O)NC2=CC=CC(=C2)NC3=NC=C(C(=N3)NCCC4=CN=CN4)Br
In short: as §1

[8] = compound: C1CN(CCC1(CC2=CC=C(C=C2)Cl)N)C3=NC=NC4=C3C=CN4
In short: as §1

IRAK-1-4 Inhibitor I = compound: C1COCCN1CCN2C3=CC=CC=C3N=C2NC(=O)C4=CC(=CC=C4)[N+](=O)[O-] [IRAK-1-4 Inhibitor I]
In short: as §1

ibrutinib = compound: C=CC(=O)N1CCC[C@@H](n2nc(-c3ccc(Oc4ccccc4)cc3)c3c(N)ncnc32)C1 [ibrutinib]
In short: as §1

[9] = compound: CC(=O)c1cnc2ccc(-c3cc(Cl)c(O)c(Cl)c3)nc2c1N[C@H]1CC[C@H](CN(C)C)CC1
In short: as §1

ralimetinib = compound: CC(C)(C)Cn1c(N)nc2ccc(-c3[nH]c(C(C)(C)C)nc3-c3ccc(F)cc3)nc21 [ralimetinib]
In short: as §1

[10] = compound: CC(C)(O)CC(=O)NCCn1ccc2ncnc(Nc3ccc(Oc4cccc(C(F)(F)F)c4)c(Cl)c3)c21
In short: as §1

[11] = compound: CC(C)C1=C2N=C(C=C(N2N=C1)NCC3=CC=CC=C3)NCCCCCCN
In short: as §1

[12] = compound: CC1=C(C(CC(=O)N1)C2=CC=C(C=C2)C(F)(F)F)C(=O)NC3=C(C=C4C(=C3)C=NN4)F
In short: as §1

[13] = compound: CC1=C(C2=C(C=C1)C(=O)C3=CC=CC=C3N2CCCN)C
In short: as §1

[14] = compound: CC1=C(C=C(C=C1)NC(=O)C2=CC(=CC=C2)C(C)(C)C#N)NC3=CC4=C(C=C3)N=CN(C4=O)C
In short: as §1

[15] = compound: CC1=C(C=C(C=C1)NC(=O)C2=CC(=CC=C2)N(C)C)NC(=O)C3=CC=C(C=C3)O
In short: as §1

[16] = compound: CC1=CC=C(C=C1)SC2=C3C=C(SC3=CN=C2)C(=O)N
In short: as §1

Measured: log2 fold change

LDB1 (UniProt Q86U70)
inactive: erlotinib 0.049 | [1] -0.024 | [2] 0.051 | [3] 0.042 | [4] -0.006 | [5] 0.002 | [6] -0.065 | [7] 0.001 | [8] 0.045 | IRAK-1-4 Inhibitor I 0.01 | ibrutinib 0.013 | [9] 0.014 | ralimetinib -0.012 | [10] 0.002 | [11] -0.002 | [12] 0.003 | [13] -0.047 | [14] -0.025 | [15] 0.02 | [16] 0.033

LMBRD1 (UniProt Q9NUN5)
inactive: erlotinib -0.007 | [1] 0.02 | [2] -0.009 | [3] -0.028 | [4] 0.059 | [5] 0.066 | [6] 0.007 | [7] 0.005 | [8] 0.02 | IRAK-1-4 Inhibitor I 0.036 | ibrutinib -0.114 | [9] -0.019 | ralimetinib -0.031 | [10] 0.051 | [11] 0.025 | [12] 0.004 | [13] -0.015 | [14] 0.075 | [15] -0.048 | [16] -0.055

LSG1 (UniProt Q9H089)
inactive: erlotinib 0.044 | [1] 0.036 | [2] -0.059 | [3] -0.136 | [4] -0.021 | [5] 0 | [6] -0.114 | [7] -0.031 | [8] 0.103 | IRAK-1-4 Inhibitor I -0.048 | ibrutinib -0.083 | [9] -0.033 | ralimetinib 0.026 | [10] 0.052 | [11] 0.032 | [12] 0.004 | [13] -0.187 | [14] 0.012 | [15] 0.013 | [16] 0.031

LRRC59 (UniProt Q96AG4)
inactive: erlotinib -0.025 | [1] 0 | [2] -0.006 | [3] -0.033 | [4] -0.011 | [5] 0.004 | [6] 0.016 | [7] 0.001 | [8] 0.001 | IRAK-1-4 Inhibitor I 0.013 | ibrutinib -0.013 | [9] -0.002 | ralimetinib -0.064 | [10] -0.011 | [11] 0.019 | [12] -0.04 | [13] 0.014 | [14] 0.017 | [15] -0.054 | [16] 0.008

LETM1 (UniProt O95202)
inactive: erlotinib -0.012 | [1] 0.061 | [2] -0.157 | [3] 0.012 | [4] 0.014 | [5] 0.01 | [6] 0.044 | [7] -0.006 | [8] 0.02 | IRAK-1-4 Inhibitor I -0.013 | ibrutinib -0.006 | [9] -0.001 | ralimetinib 0.007 | [10] 0.002 | [11] 0.045 | [12] -0.026 | [13] 0.026 | [14] 0.036 | [15] 0 | [16] 0.037

LMNA (UniProt P02545)
inactive: erlotinib -0.01 | [1] -0.006 | [2] 0.003 | [3] -0.019 | [4] -0.025 | [5] -0.011 | [6] 0.002 | [7] 0.036 | [8] -0.019 | IRAK-1-4 Inhibitor I -0.004 | ibrutinib 0.016 | [9] -0.015 | ralimetinib 0.04 | [10] 0.001 | [11] -0.029 | [12] -0.037 | [13] 0.044 | [14] -0.037 | [15] -0.003 | [16] -0.014

LRPPRC (UniProt P42704)
inactive: erlotinib 0.04 | [1] 0.028 | [2] -0.02 | [3] 0.048 | [4] 0.067 | [5] -0.004 | [6] -0.017 | [7] -0.012 | [8] 0.006 | IRAK-1-4 Inhibitor I 0.006 | ibrutinib 0.006 | [9] 0.023 | ralimetinib 0.027 | [10] 0.019 | [11] 0.018 | [12] -0.011 | [13] 0.038 | [14] -0.009 | [15] 0.052 | [16] 0.016

LRFN1 (UniProt Q9P244)
inactive: erlotinib 0.124 | [1] -0.004 | [2] -0.099 | [3] 0.145 | [4] -0.215 | [5] -0.083 | [6] -0.049 | [7] -0.081 | [8] 0.312 | IRAK-1-4 Inhibitor I -0.126 | ibrutinib 0.168 | [9] -0.041 | ralimetinib 0.16 | [10] 0.057 | [11] -0.038 | [12] -0.038 | [13] -0.046 | [14] 0.037 | [15] 0.09 | [16] 0.003

LIMS1 isoform 3 (UniProt P48059)
inactive: erlotinib -0.004 | [1] -0.034 | [2] 0.014 | [3] 0.009 | [4] -0.008 | [5] 0.004 | [6] 0.094 | [7] 0.003 | [8] -0.017 | IRAK-1-4 Inhibitor I -0.024 | ibrutinib 0.003 | [9] 0.033 | ralimetinib 0.003 | [10] 0.023 | [11] -0.036 | [12] -0.012 | [13] -0.01 | [14] 0.052 | [15] -0.023 | [16] -0.006

LRRC40 (UniProt Q9H9A6)
inactive: erlotinib -0.014 | [1] 0.009 | [2] 0.004 | [3] -0.002 | [4] -0.028 | [5] -0.015 | [6] -0.014 | [7] -0.036 | [8] -0.011 | IRAK-1-4 Inhibitor I -0.017 | ibrutinib 0.017 | [9] 0.011 | ralimetinib 0.019 | [10] 0.025 | [11] -0.011 | [12] 0.015 | [13] 0.002 | [14] -0.073 | [15] 0.01 | [16] -0.007

LSM4 (UniProt Q9Y4Z0)
inactive: erlotinib -0.009 | [1] -0.002 | [2] 0.048 | [3] 0.003 | [4] -0.018 | [5] 0.007 | [6] -0.002 | [7] -0.024 | [8] 0.022 | IRAK-1-4 Inhibitor I 0.01 | ibrutinib -0.004 | [9] -0.016 | ralimetinib -0.015 | [10] -0.023 | [11] 0.013 | [12] -0.021 | [13] -0.043 | [14] 0.005 | [15] 0.005 | [16] -0.02

LSM1 (UniProt O15116)
inactive: erlotinib -0.02 | [1] 0.073 | [2] 0.006 | [3] 0.027 | [4] -0.093 | [5] -0.009 | [6] -0.022 | [7] 0.059 | [8] 0.03 | IRAK-1-4 Inhibitor I 0.015 | ibrutinib 0.133 | [9] -0.01 | ralimetinib -0.012 | [10] 0.028 | [11] -0.018 | [12] -0.021 | [13] 0.06 | [14] 0.008 | [15] 0.006 | [16] 0.019

LNPEP (UniProt Q9UIQ6)
inactive: erlotinib 0 | [1] -0.065 | [2] 0.025 | [3] 0.013 | [4] 0.005 | [5] 0.009 | [6] 0.01 | [7] 0.003 | [8] 0.014 | IRAK-1-4 Inhibitor I 0.008 | ibrutinib 0.016 | [9] -0.044 | ralimetinib 0.024 | [10] 0.002 | [11] -0.015 | [12] -0.004 | [13] -0.002 | [14] 0.022 | [15] 0.003 | [16] -0.055

Two consecutive entries already listed, quoted:
LSM1 (UniProt O15116)
inactive: erlotinib -0.02 | [1] 0.073 | [2] 0.006 | [3] 0.027 | [4] -0.093 | [5] -0.009 | [6] -0.022 | [7] 0.059 | [8] 0.03 | IRAK-1-4 Inhibitor I 0.015 | ibrutinib 0.133 | [9] -0.01 | ralimetinib -0.012 | [10] 0.028 | [11] -0.018 | [12] -0.021 | [13] 0.06 | [14] 0.008 | [15] 0.006 | [16] 0.019

LNPEP (UniProt Q9UIQ6)
inactive: erlotinib 0 | [1] -0.065 | [2] 0.025 | [3] 0.013 | [4] 0.005 | [5] 0.009 | [6] 0.01 | [7] 0.003 | [8] 0.014 | IRAK-1-4 Inhibitor I 0.008 | ibrutinib 0.016 | [9] -0.044 | ralimetinib 0.024 | [10] 0.002 | [11] -0.015 | [12] -0.004 | [13] -0.002 | [14] 0.022 | [15] 0.003 | [16] -0.055

Next results

LMNB2 (UniProt Q03252)
inactive: erlotinib 0.047 | [1] 0.053 | [2] 0 | [3] 0.022 | [4] -0.019 | [5] 0.003 | [6] 0.047 | [7] 0.007 | [8] -0.022 | IRAK-1-4 Inhibitor I 0.012 | ibrutinib 0.043 | [9] -0.084 | ralimetinib 0.006 | [10] -0.007 | [11] -0.043 | [12] 0.08 | [13] -0.044 | [14] 0.017 | [15] 0.005 | [16] -0.003

LRRC8B (UniProt Q6P9F7)
inactive: erlotinib 0.078 | [1] 0.106 | [2] -0.011 | [3] 0.268 | [4] -0.011 | [5] -0.002 | [6] -0.062 | [7] -0.002 | [8] -0.014 | IRAK-1-4 Inhibitor I 0.035 | ibrutinib 0.138 | [9] 0.182 | ralimetinib -0.032 | [10] -0.037 | [11] -0.099 | [12] -0.091 | [13] 0.059 | [14] -0.083 | [15] -0.002 | [16] -0.146
